Results on three molecules are retold here after article doi:10.1101/2023.11.03.565550.

Sequences of proteins named here, by UniProt entry; tags and fusion partners are left off.
UniProt F4JL11: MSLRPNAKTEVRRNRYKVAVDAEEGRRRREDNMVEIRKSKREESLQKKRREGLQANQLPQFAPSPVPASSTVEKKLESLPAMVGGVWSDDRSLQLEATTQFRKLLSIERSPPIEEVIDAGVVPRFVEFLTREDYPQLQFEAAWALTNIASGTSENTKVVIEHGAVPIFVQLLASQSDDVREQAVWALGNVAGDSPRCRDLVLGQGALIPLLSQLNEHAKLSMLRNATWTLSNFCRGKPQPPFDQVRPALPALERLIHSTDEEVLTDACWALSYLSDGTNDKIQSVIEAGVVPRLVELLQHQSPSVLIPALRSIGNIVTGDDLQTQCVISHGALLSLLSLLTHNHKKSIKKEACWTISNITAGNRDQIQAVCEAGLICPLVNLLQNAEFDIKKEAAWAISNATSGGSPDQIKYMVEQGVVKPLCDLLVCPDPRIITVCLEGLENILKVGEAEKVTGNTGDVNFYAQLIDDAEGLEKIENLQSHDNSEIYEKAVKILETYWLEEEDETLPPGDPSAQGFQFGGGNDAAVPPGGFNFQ
UniProt Q96321: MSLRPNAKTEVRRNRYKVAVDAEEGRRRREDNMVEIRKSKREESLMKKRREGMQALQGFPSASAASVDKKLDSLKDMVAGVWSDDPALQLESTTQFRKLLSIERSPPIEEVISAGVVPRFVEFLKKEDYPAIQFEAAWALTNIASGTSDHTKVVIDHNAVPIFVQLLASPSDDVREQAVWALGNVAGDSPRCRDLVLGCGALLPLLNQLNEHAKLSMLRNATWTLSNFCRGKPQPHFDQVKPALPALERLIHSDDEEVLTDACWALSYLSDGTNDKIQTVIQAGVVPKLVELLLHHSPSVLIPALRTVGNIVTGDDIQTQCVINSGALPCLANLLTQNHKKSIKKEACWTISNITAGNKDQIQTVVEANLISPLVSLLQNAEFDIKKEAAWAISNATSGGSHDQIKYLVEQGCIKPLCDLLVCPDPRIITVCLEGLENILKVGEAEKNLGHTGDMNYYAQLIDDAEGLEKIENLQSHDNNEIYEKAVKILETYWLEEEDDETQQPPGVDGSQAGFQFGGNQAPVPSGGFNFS

No constants are given. Whether binding was seen depends on the method and setting. Binding seen in cells or lysates may run through a third protein. A yes stands for co-enrichment or nearness to the bait. Other partners may have been found. Where a sequence is shown, tags or fusion partners need not be part of it.

In this assay the target is T1, EYFP-tagged GL2 (EYFP:GL2) expressed in Arabidopsis plants (Arabidopsis) (UniProt P46607).
T1 sequence: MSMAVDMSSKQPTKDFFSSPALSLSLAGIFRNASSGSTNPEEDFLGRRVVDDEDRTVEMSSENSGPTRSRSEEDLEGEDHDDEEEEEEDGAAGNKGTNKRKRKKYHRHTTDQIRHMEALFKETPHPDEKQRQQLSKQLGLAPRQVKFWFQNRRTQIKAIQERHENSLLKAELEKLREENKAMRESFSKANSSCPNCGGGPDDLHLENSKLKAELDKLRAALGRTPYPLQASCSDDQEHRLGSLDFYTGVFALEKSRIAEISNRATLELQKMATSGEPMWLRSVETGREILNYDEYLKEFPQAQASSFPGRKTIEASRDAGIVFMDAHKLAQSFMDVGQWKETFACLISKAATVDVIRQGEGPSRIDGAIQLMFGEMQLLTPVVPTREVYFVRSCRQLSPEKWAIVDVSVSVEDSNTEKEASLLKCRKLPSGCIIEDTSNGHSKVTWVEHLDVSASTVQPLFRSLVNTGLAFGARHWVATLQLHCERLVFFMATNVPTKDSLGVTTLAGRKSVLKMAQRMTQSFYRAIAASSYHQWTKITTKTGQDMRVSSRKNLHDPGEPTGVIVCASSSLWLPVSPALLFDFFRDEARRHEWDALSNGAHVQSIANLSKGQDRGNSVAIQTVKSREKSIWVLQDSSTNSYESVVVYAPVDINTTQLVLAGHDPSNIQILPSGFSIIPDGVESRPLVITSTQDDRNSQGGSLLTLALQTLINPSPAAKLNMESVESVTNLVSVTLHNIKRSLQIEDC
The assay is described as follows: affinity purification with mass spectrometry.

On to “Importin α isoform IMPα-2, endogenous in Arabidopsis plants (from UniProt F4JL11 1-535)”, for which the binding result is “binds”.

“Importin α isoform IMPα-1, endogenous in Arabidopsis plants (from UniProt Q96321 1-532)”: the binding result is given as “binds”.

B1: Importin α isoform IMPα-6, endogenous in Arabidopsis plants (protein, UniProt Q9FWY7 1-538)
chain: MSYKPSAKTEVRRNRYKVSVDADEGRRRREDNMVEIRKNKREENLQKKRREGFNPSMASQPGQDFSSSLPTETRLENIQQMIAGVMSEDRDLQLEATASFRRLLSIERNPPINEVVQSGVVPHIVQFLSRDDFTQLQFEAAWALTNIASGTSENTRVIIDSGAVPLFVKLLSSASEEVREQAVWALGNVAGDSPKCRDHVLSCEAMMSLLAQFHEHSKLSMLRNATWTLSNFCRGKPQPAFEQTKAALPALERLLHSTDEEVLTDASWALSYLSDGTNEKIQTVIDAGVIPRLVQLLAHPSPSVLIPALRTIGNIVTGDDIQTQAVISSQALPGLLNLLKNTYKKSIKKEACWTISNITAGNTSQIQEVFQAGIIRPLINLLEIGEFEIKKEAVWAISNATSGGNHDQIKFLVSQGCIRPLCDLLPCPDPRVVTVTLEGLENILKVGEAEKNLGNTGNDNLYAQMIEDADGLDKIENLQSHDNNEIYEKAVKILESYWAADDEEEDIGGVDAPENVQSSGFQFGNQSGNAPTGGFNFG
Consider B1, for which the binding result is reported as “binds”.
